Results on 1 molecule are retold here after article PMC11597817, “Modulation of Multispecific Transporters by Uncaria tomentosa Extract and Its Major Phytoconstituents” (Pharmaceutics, 2024).

Holding throughout (assay): Antiproliferative MTT assay
Common to all, as to type: cell-based, human
What all share (details): read-out: cisplatin IC50 [95% confidence interval]; 72 h
On the technique in general: Tetrazolium assays rely on reduction of a dye to a coloured formazan, in cell work by metabolically active cells.

One assay deals with HeLa. The procedure:
(§1) For the determination of the antiproliferative properties of the prepared extract and selected alkaloids (isopteropodine, mitraphylline, and uncarine D), an MTT assay was applied on our […] cell panel (see Table S4). […] All were maintained in a minimal essential medium completed with 10% fetal bovine serum, 1% non-essential amino acids, and 1% penicillin–streptomycin at 37 °C in a humidified atmosphere containing 5% CO2. All cell lines were purchased from the European Collection of Cell Cultures (Salisbury, UK), except for SiHa and C33A, which were from the American Tissue Culture Collection, LGC Standards GmbH (Wesel, Germany). Cell culture media and supplements were obtained from Lonza Group Ltd. (Basel, Switzerland). Cells were seeded into 96-well plates (C33A 10,000/well, all others 5000/well); after overnight incubation, the test substances were added and incubated for another 72 h under cell-culturing conditions. Uncaria tomentosa extract and the alkaloids were tested in the 1–90 μg/mL and 1–30 μM ranges, respectively. Finally, 20 μL of 5 mg/mL MTT solution was added to each well and incubated for 4 h; the medium was discarded, and the precipitated formazan crystals were dissolved in DMSO for 60 min with shaking. The absorbance was determined using a microplate reader (SPECTROstar Nano, BMG Labtech GmbH). Two independent experiments were performed with five parallels for each condition. Cisplatin, a clinically used anticancer agent (Ebewe GmbH, Unterach, Austria), was included as a reference compound. Calculations were conducted using the GraphPad Prism 10.0 software (GraphPad Software Inc., San Diego, CA, USA).
(§2) Table S4 – Antiproliferative properties of Uncaria tomentosa extract, three natural products (isopteropodine, mitraphylline, and uncarine D) and the
(§3) reference agent cisplatin.
(§4) Cell line Uncaria tomentosa isopteropodine mitraphylline uncarine D [95% confidence
(§5) 1: The highest applied concentration was 90 μg/mL and 30 μM for the extract and the pure natural products, respectively.
(§6) 2: Inhibitions less than 20% compared to the untreated control were regarded as negligible and were not given numerically.

The test system of a further assay is MCF7. The procedure:
as §1, §2, §3, §4, §5, §6

In a further assay the test system is A2780. The procedure:
as §1, §2, §3, §4, §5, §6

For the next assay, the system named is MDA-MB-231. The procedure: as §1, §2, §3, §4, §5, §6

For the molecule `N.N.[Cl][Pt][Cl]` [cisplatin, reference compound], the IC50 turned out to be 12.1 µM in the assay with HeLa, 8.34 µM in the assay with MCF7, 5.27 µM in the assay on A2780 and 26 µM with MDA-MB-231.

Broadly, the IC50 is the concentration at which inhibition is half-maximal.
